These are yes or no findings as the source states them, for the method shown. Binding seen in cells or lysates may run through a third protein. Some results given as binding are weak or reduced against the parent protein; the word gives no strength.
Molecular target: amyloid-β precursor protein (APP) (human (endogenous in iPSC-derived NSCs)) (UniProt P05067)
Assay: co-IP; endogenous proteins in lysates of human iPSC-derived NSCs (PS1+/+, PS1+/-, PS1-/-); TNE buffer (25 mM Tris-HCl pH 7.6, 150 mM NaCl, 1 mM EDTA) with 1% Triton X-100; primary antibody (anti-PI3Kp85 or anti-APP) overnight at 4 °C, Protein A/G magnetic beads; western blotting

Chains of the proteins cited; added tags and fusions are not shown. Residues count along the entry.
UniProt P05067, residues 18-770: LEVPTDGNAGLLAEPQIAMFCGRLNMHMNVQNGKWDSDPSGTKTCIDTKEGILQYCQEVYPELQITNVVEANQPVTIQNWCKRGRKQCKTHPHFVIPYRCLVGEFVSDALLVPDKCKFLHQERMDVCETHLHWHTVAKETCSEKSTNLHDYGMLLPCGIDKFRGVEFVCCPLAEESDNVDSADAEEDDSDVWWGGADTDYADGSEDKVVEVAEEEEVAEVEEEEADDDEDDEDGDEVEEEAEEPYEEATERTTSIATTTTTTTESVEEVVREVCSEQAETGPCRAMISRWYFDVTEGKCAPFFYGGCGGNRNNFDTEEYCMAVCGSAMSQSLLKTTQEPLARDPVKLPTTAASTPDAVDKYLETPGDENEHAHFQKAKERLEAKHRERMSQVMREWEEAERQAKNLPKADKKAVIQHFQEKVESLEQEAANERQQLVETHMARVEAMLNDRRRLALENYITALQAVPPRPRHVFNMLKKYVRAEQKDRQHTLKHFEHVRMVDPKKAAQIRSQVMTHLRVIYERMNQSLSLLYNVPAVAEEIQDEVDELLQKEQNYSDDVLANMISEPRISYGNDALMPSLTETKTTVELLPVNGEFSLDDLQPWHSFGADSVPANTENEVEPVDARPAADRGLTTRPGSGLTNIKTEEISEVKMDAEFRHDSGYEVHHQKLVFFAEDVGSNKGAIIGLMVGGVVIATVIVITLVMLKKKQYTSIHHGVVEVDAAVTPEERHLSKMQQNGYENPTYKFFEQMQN
UniProt P62993: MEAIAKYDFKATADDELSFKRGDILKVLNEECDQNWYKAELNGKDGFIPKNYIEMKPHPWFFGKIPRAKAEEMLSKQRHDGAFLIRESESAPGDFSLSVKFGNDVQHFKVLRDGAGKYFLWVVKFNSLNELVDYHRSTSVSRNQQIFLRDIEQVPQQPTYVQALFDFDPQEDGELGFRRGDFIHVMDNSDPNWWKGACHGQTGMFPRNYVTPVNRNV

binding: binds
Substance: GRB2 (from UniProt P62993 1-217)

— publication PMC6115391
